Measurements taken from US11344542B2, “Treatment of aging-associated disease with modulators of leukotriene A4 hydrolase” (Alkahest, Inc., priority 2018, dated 2022).
At least one structure is not confirmed: it was looked up by name or label, or the drawing left a doubt.

Key:
[1] = tested on: nineteen-month-old wild type (C57BL/6) mice; test: Radial arm water maze in aged mice treated with inhibitors; format: in vivo, mouse; details: PO daily for 4 weeks, SC 5 mg/kg, Montelukast 10 mg/kg
Description: The water maze (see, e.g. Alamed J, et al., Two-day radial-arm water maze learning and memory tasks; robust resolution of amyloid-related memory deficits in transgenic mice., Nat. Protoc., 1(4):1671-79 (2006)), was filled with water at least 24 hours prior to the test to equilibrate to 25° C. The water was dyed with white latex paint to make the animals visible for tracking and to allow for the use of a hidden platform. Eight distinct visual cues were placed at the end of each of eight arms of the RAWM inserts. On day 1 animals were subjected to 5 trials each with a visible platform and a 30-minute inter-trial interval. Animals had 60 seconds to reach the platform. […] The goal arm remained constant and a different start arm was randomly assigned for each of the 5 trials so that mouse started in every arm once except for the two arms directly across from the platform. The goal arm was switched after every two mice and balanced between all treatment groups. […] Testing day was 48 hours after training, when animals were subjected to the same test of 5 trials each and a 30-minute inter-trial interval, but with a hidden platform Animals were scored for the number of errors (entry into a non-goal arm) and for latency to reach the platform. All trials were recorded using TopScan software (CleverSys, Inc., Reston, Va.). […]

[2] = tested on: aquaporin 4 (AQP4) in the hippocampus; test: Aquaporin 4 (AQP4) immunofluorescence in the hippocampus of aged mice; format: in vivo, mouse; details: 10 mg/kg PO daily for 4 weeks
Description: (§1) Brains were collected following saline perfusion and separated by mid-sagittal slice with one-half drop fixed in freshly prepared 4% PFA. PFA was changed to 30% sucrose 24-48 hours later. A second change to 30% sucrose occurred 24 hours later. The second half was dissected into hippocampus and cortex and then snap frozen on dry ice.
(§2) Brain tissue was sectioned or lysed and analyzed for markers of neurogenesis and aging by standard histological and biochemical methods, including qRT-PCR, Western blot, ELISA, and immunohistochemistry.
(§3) Nineteen-month-old (19 mo) wild type (WT; C57BL/6) mice were homogenized into five (5) groups by body weight, total distance travelled in the open field test, and average velocity in the open field test. Group 1 was administered 10% EtOH control PO daily for 4 weeks, Group 2 was administered 5 mg/kg of SC-57461A LTA4H dual inhibitor PO daily for 4 weeks; Group 3 was administered 10 mg/kg of CP-105,696 LTB4 receptor (BLTR) antagonist PO daily for 4 weeks, Group 4 was administered 10 mg/kg of Montelukast cysteinyl receptor (CysLTR) antagonist daily for 4 weeks, and Group 5 was administered 10 mg/kg of pinostilbene hydrate daily for 4 weeks. During Week 4 of treatment all groups were tested using open field, radial arm water maze, and Y-maze. During Week 5 animals were sacrificed, and tissues collected for histological and biochemical analysis.

[3] = tested on: hippocampal mRNA levels; test: qPCR of hippocampal mRNA levels in aged mice treated with inhibitors; format: in vivo, mouse; details: PO daily for 4 weeks, vs vehicle
Description: as §1, §2, §3

[4] = tested on: aged mice; details: Marschallinger et al.; cited from earlier work

CC(C)(O)c1ccccc1CC[C@@H](SCC1(CC(=O)O)CC1)c1cccc(/C=C/c2ccc3ccc(Cl)cc3n2)c1 [Montelukast]
hippocampus-dependent spatial memory in radial arm water maze [1]: improvements | fluorescence intensity of AQP4 in the hippocampus immediately surrounding blood vessels (vascular) [2]: trend towards a decrease | integrated optical density of aquaporin 4 (AQP4) in the hippocampus ([2]; vs vehicle): significant decrease | IL-1β hippocampal mRNA expression (qPCR) [3]: significant decrease | TNFα hippocampal mRNA expression (qPCR) [3]: significant decrease | cfos hippocampal mRNA expression (qPCR) [3]: significant increase | cognition and inflammation in aged mice [4]: improve cognition and reduce inflammation
